The list shows a part of the results.

This note sets out measurements from PubChem BioAssay AID685 (PCMD, 2007).

The nature of the test: yeast growth toxicity, wild-type and mutant, primary screen, cytotoxicity control for eIF2B function restoration project, wild-type and eIF2Bepsilon R284H mutant, A595 (AID 685).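 Further: 0% = untreated cell controls and 100% = YPD media blanks without cells.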 The note with it: S. cerevisiae eIF2Bepsilon-R284H mutant growth, A595 turbidity, 16 h; stronger effect = higher value; screened at 25 µM (by protocol). The method, boiled down: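 Test system: Wild-type and eIF2Bepsilon-R284H mutant S. cerevisiae, screened separately | Dosing: Single 25 µM compound dose in 0.2% DMSO | Schedule: 16 h compound exposure during growth at 30 °C | Detection: A595 turbidity | Evaluation: Growth inhibition (%) versus cell controls and blanks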
For the compound `O=C(OC1CN2CCC1CC2)c1cccc(Cl)c1` (stereo not given), the growth inhibition is -23.8%. Take `COC(=O)c1cc2c(s1)N=C(c1ccccc1)N(C)P2(=O)N1CCOCC1` (stereo not given): the growth inhibition was determined as 0%. To `O=P1(Nc2nc3ccc(Cl)cc3s2)COc2ccccc2O1` (stereo not given) belongs 14.8%. On to `CN1CCCC(OC(=O)C(c2ccccc2)c2ccccc2)C1` (stereo not given), for which the growth inhibition is -3.33%. For the compound `COc1ccc(OP(C)(=O)Nc2ccccn2)cc1` (stereo not given), the growth inhibition amounted to 17.6%. The value for `COc1ccccc1OP(C)(=O)Nc1ccc(C)cc1C` (stereo not given) was 17.4%; that for `Cc1c2non([O-])c-2c(C)[n+](=O)[n+]1[O-]` was -15.8%. To `Oc1ccccc1CNc1ccccn1` belongs 8.06%; to `Cc1c(NP(C)(=O)Oc2ccc(C(C)C)cc2)c(=O)n(-c2ccccc2)n1C` (stereo not given), -2.27%.

Consider `O=[N+]([O-])c1cccc2n[nH]nc12`, for which the growth inhibition worked out at 22.5%. For `CC1CCN(C(=O)Oc2c(Cl)cc(Cl)c3cccnc23)CC1`, the growth inhibition is -19.1%. Turning to `CCOP(C)(=S)SCC(=O)NC(C)C(=O)O` (stereo not given), the growth inhibition came out at 15.8%. Turning to `Cc1ccc(NP(C)(=O)Oc2ccccc2)c(C)c1` (stereo not given), the growth inhibition is -19.1%.

For the compound `COc1ccccc1OP(C)(=O)Nc1ccc(C)cc1` (stereo not given), the growth inhibition was -10.7%. The value for `O=C(OC1CN2CCC1CC2)C12CC3CC(CC(C3)C1)C2` (stereo not given) was 6.45%; that for `Cc1cc(C)cc(OP(C)(=O)Nc2ccccn2)c1` (stereo not given) was 10%. The value for `O=P1(Nc2ccc(Br)cn2)COc2ccccc2OC1` was 18.5%; that for `COc1ccccc1OP(C)(=O)Nc1c(C)cccc1C` (stereo not given) was 22.7%; that for `O=P1(Nc2ncccn2)COc2ccccc2OC1` was 7.41%. With `CC1(CBr)Cn2c(nc3ccccc3c2=O)S1` (stereo not given), the growth inhibition came to 0%.
